The source of these data is paper PMC3349726.

These are yes or no findings as the source states them, for the method shown. For part of these data: In cells and extracts the contact can be indirect. Some binding calls cover weakened binding; strength is not graded here. Sequences can lack the tags named with a protein.

For assay [1], the target named is T1, BD-HRB1 (full-length Hypersensitive to Red and Blue 1 fused to the GAL4 DNA binding domain) (Arabidopsis thaliana) (UniProt Q9FJ17).
T1 sequence: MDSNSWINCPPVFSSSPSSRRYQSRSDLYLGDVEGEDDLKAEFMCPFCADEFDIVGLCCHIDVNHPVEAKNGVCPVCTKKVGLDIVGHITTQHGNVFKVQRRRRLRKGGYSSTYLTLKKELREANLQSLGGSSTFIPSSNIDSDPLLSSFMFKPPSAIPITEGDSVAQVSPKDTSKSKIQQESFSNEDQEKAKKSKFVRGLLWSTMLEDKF
The assay can be described thus: two-hybrid; quantitative yeast two-hybrid assay (beta-galactosidase activity); baits in pGBKT7, preys in pGADT7; transformants selected on SD medium lacking Trp and Leu.

Assay [2] addresses T2, GBD:HRB1 (HRB1 tagged with the GAL4 DNA binding domain, produced in E. coli) (Arabidopsis thaliana) (UniProt Q9FJ17).
T2 sequence: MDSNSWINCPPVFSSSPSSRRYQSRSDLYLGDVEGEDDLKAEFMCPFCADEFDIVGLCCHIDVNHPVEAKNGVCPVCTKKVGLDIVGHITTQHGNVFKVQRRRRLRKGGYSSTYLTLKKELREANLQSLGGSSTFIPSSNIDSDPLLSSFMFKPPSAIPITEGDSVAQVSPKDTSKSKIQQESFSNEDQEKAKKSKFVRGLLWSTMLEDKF
Put plainly: pull-down; in vitro immuno-precipitation: GBD or GBD:HRB1 from E. coli total extract captured with anti-GAL4 BD antibody on protein A/G agarose and washed, then incubated with in vitro translated 35S-labelled PP7 at 4 C for 2 hours; 1x PBS pH 7.5, 0.1% NP40; autoradiography; only the target ….

Assay [3] addresses T3, HRB1:GFP:His (Arabidopsis thaliana) (UniProt Q9FJ17).
T3 sequence: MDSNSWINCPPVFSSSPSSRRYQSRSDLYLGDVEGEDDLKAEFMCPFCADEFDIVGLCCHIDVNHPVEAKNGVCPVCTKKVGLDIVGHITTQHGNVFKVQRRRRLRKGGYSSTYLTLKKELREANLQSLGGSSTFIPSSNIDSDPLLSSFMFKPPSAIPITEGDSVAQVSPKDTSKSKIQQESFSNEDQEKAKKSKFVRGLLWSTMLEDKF
Put plainly: pull-down; His affinity-precipitation on nickel-agarose beads from extracts of co-infiltrated Nicotiana benthamiana leaves, in the dark or under 4.93 umol/m2/s blue light for 2 hours; 50 mM Tris-Cl pH 7.5, 150 mM NaCl, 10% glycerol, 0.5% NP40, 10 mM imidazole; PP7 detected with an anti-Myc antibody.

B1: AD-PP7 (full-length Protein Phosphatase 7 fused to the GAL4 activation domain) (enzyme, UniProt Q9FN02 1-413)
chain: METVPPSPITWPDGGALTNDWVHGLMSCFEWSSWNLPPSQLPSLLPVNVFDSLVLTAHKILHKERNCVHIDDLDSVSNVVVVGDIHGQLHDLLFLLKDTGFPCQNRCYVFNGDYVDRGAWGLETFLVLLSWKVLMPDRVYLLRGNHESKYCTSMYGFEKEVLTKYGDKGKHVYRKCLGCFEGLPLASIISGRVYTAHGGLFRSPVLPKRTTRGKKNRRVVLLEPEPSSMKLGTLDELMQARRSVLDPPWEGSNLIPGDVLWSDPSMTPGLSPNEQRGIGLLWGPDCTEDFLKKYELKLIIRSHEGPDAREKRTGLGGMDNGYTIDHNVESGKLITIFSAPDYPQFQATEERYKNKGAYIILQAPDFSDPQFHSFEAVKPRPKAHPYYDFENVIDSDDEMDKSAMDTNNEQPNS
Take B1: the binding result in assay [1] is “binds”.

B2: PP7 produced in a TnT in vitro transcription and translation system (enzyme, UniProt Q9FN02 1-413)
chain: METVPPSPITWPDGGALTNDWVHGLMSCFEWSSWNLPPSQLPSLLPVNVFDSLVLTAHKILHKERNCVHIDDLDSVSNVVVVGDIHGQLHDLLFLLKDTGFPCQNRCYVFNGDYVDRGAWGLETFLVLLSWKVLMPDRVYLLRGNHESKYCTSMYGFEKEVLTKYGDKGKHVYRKCLGCFEGLPLASIISGRVYTAHGGLFRSPVLPKRTTRGKKNRRVVLLEPEPSSMKLGTLDELMQARRSVLDPPWEGSNLIPGDVLWSDPSMTPGLSPNEQRGIGLLWGPDCTEDFLKKYELKLIIRSHEGPDAREKRTGLGGMDNGYTIDHNVESGKLITIFSAPDYPQFQATEERYKNKGAYIILQAPDFSDPQFHSFEAVKPRPKAHPYYDFENVIDSDDEMDKSAMDTNNEQPNS
modifications: radiolabeled with 35S-methionine
Consider B2, for which, in assay [2], the binding result is on record as “binds”.

B3: PP7:Myc (enzyme, UniProt Q9FN02 1-413)
chain: METVPPSPITWPDGGALTNDWVHGLMSCFEWSSWNLPPSQLPSLLPVNVFDSLVLTAHKILHKERNCVHIDDLDSVSNVVVVGDIHGQLHDLLFLLKDTGFPCQNRCYVFNGDYVDRGAWGLETFLVLLSWKVLMPDRVYLLRGNHESKYCTSMYGFEKEVLTKYGDKGKHVYRKCLGCFEGLPLASIISGRVYTAHGGLFRSPVLPKRTTRGKKNRRVVLLEPEPSSMKLGTLDELMQARRSVLDPPWEGSNLIPGDVLWSDPSMTPGLSPNEQRGIGLLWGPDCTEDFLKKYELKLIIRSHEGPDAREKRTGLGGMDNGYTIDHNVESGKLITIFSAPDYPQFQATEERYKNKGAYIILQAPDFSDPQFHSFEAVKPRPKAHPYYDFENVIDSDDEMDKSAMDTNNEQPNS
Consider B3, for which the binding entry in assay [3] is on record as “binds”.

B4: PP7m (PP7 with a D to A change at amino acid position 116, fused to the GAL4 activation domain) (enzyme, UniProt Q9FN02 1-413)
chain: METVPPSPITWPDGGALTNDWVHGLMSCFEWSSWNLPPSQLPSLLPVNVFDSLVLTAHKILHKERNCVHIDDLDSVSNVVVVGDIHGQLHDLLFLLKDTGFPCQNRCYVFNGDYVARGAWGLETFLVLLSWKVLMPDRVYLLRGNHESKYCTSMYGFEKEVLTKYGDKGKHVYRKCLGCFEGLPLASIISGRVYTAHGGLFRSPVLPKRTTRGKKNRRVVLLEPEPSSMKLGTLDELMQARRSVLDPPWEGSNLIPGDVLWSDPSMTPGLSPNEQRGIGLLWGPDCTEDFLKKYELKLIIRSHEGPDAREKRTGLGGMDNGYTIDHNVESGKLITIFSAPDYPQFQATEERYKNKGAYIILQAPDFSDPQFHSFEAVKPRPKAHPYYDFENVIDSDDEMDKSAMDTNNEQPNS
With B4, the binding entry in assay [1] is given as “binds”.

B5: PP7-C70 (PP7 with the last 70 amino acids deleted, fused to the GAL4 activation domain) (domain or fragment, UniProt Q9FN02 1-343)
chain: METVPPSPITWPDGGALTNDWVHGLMSCFEWSSWNLPPSQLPSLLPVNVFDSLVLTAHKILHKERNCVHIDDLDSVSNVVVVGDIHGQLHDLLFLLKDTGFPCQNRCYVFNGDYVDRGAWGLETFLVLLSWKVLMPDRVYLLRGNHESKYCTSMYGFEKEVLTKYGDKGKHVYRKCLGCFEGLPLASIISGRVYTAHGGLFRSPVLPKRTTRGKKNRRVVLLEPEPSSMKLGTLDELMQARRSVLDPPWEGSNLIPGDVLWSDPSMTPGLSPNEQRGIGLLWGPDCTEDFLKKYELKLIIRSHEGPDAREKRTGLGGMDNGYTIDHNVESGKLITIFSAPDYP
As for B5, in assay [1], the binding entry is “binds”.

B6: PP7-N50 (PP7 with the first 50 amino acids deleted, fused to the GAL4 activation domain) (domain or fragment, UniProt Q9FN02 51-413)
chain: DSLVLTAHKILHKERNCVHIDDLDSVSNVVVVGDIHGQLHDLLFLLKDTGFPCQNRCYVFNGDYVDRGAWGLETFLVLLSWKVLMPDRVYLLRGNHESKYCTSMYGFEKEVLTKYGDKGKHVYRKCLGCFEGLPLASIISGRVYTAHGGLFRSPVLPKRTTRGKKNRRVVLLEPEPSSMKLGTLDELMQARRSVLDPPWEGSNLIPGDVLWSDPSMTPGLSPNEQRGIGLLWGPDCTEDFLKKYELKLIIRSHEGPDAREKRTGLGGMDNGYTIDHNVESGKLITIFSAPDYPQFQATEERYKNKGAYIILQAPDFSDPQFHSFEAVKPRPKAHPYYDFENVIDSDDEMDKSAMDTNNEQPNS
As to B6, the binding entry in assay [1] is recorded as “binds”.
